No constants are given. Whether binding was seen depends on the method and setting. Some entries that bind do so weakly or less than the wild type.
T1: hCTLA-4 protein (human, UniProt P16410 36-161)
T1 construct: human CTLA-4 protein, soluble recombinant protein; The MST methods speak of a 'Red-NHS647 dye-labelled protein' without naming it; also called human CTLA-4 protein
T1 sequence (looked up): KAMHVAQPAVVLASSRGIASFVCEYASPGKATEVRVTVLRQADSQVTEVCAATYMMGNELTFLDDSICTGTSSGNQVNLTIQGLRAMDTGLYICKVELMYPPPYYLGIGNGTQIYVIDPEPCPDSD

Sequences of proteins named here, by UniProt entry; tags and fusion partners are left off. Residues count along the entry.
UniProt P09793, residues 36-223: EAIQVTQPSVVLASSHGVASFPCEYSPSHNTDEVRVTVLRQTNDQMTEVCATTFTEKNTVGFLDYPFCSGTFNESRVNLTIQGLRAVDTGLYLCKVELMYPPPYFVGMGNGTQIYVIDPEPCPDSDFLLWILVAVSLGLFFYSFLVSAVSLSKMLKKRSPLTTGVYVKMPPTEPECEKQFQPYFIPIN


How the values were obtained:
hCTLA-4 protein = molecular target: T1, hCTLA-4 protein; test: condition: peptides first diluted to 400 μmol/L, mixed with an equal volume of labelled protein; MST; Monolith NT.115; peptides first diluted to 400 μmol/L in MST buffer, 16 twofold dilutions; equal volumes of Red-NHS647 dye-labelled protein and peptide, room temperature 5 min, standard capillaries; both purified
[1] = molecular target: hCTLA-4 on CHO-K1/hCTLA-4 cells (human) (UniProt P16410); test: flow cytometry on cells; biotin-labelled peptides at 200 μM incubated with CHO-K1/hCTLA-4, CHO-K1/mCTLA-4 or CHO-K1 cells for 30 min at 4 °C, detected with SA-PE; only the binder purified
[2] = molecular target: mCTLA-4 on CHO-K1/mCTLA-4 cells (mouse) (UniProt P09793); test: as above

Binder	binding (hCTLA-4 protein)	binding [1]	binding [2]
ASANDNRLRYTY [LC6]	no binding		
RWKDTAYALTNN [LC1]	no binding		
SHRWQVWSRDRA [LC5]	no binding		
LDRPSSLAHLASGGGK (GGGK-biotin at carboxyl terminal) [LC7-biotin]		binds	
WGHSHFSHWKGRGGGK (GGGK-biotin at carboxyl terminal) [LC4-biotin]		binds	binds
HHLRIPYALDQT [LC2]	no binding		
RHHSSNPRDTAPGGGK (GGGK-biotin at carboxyl terminal) [LC8-biotin]		binds	
